{"sequences": {"note": "The chains behind the UniProt entries cited, without tags or fusion partners. Where a name states a change or a piece, a line headed by the entry shows the natural chain unless it says otherwise. Residues count along the entry.", "UniProt Q9NZQ7": "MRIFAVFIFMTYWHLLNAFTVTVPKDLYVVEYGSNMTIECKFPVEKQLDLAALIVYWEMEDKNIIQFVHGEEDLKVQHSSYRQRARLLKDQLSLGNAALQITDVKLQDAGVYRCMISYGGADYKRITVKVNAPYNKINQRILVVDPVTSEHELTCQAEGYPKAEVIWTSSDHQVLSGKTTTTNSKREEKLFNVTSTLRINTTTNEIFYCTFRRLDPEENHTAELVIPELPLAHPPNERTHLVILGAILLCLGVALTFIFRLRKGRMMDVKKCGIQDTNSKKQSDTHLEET", "UniProt P08581, residues 25-1390": "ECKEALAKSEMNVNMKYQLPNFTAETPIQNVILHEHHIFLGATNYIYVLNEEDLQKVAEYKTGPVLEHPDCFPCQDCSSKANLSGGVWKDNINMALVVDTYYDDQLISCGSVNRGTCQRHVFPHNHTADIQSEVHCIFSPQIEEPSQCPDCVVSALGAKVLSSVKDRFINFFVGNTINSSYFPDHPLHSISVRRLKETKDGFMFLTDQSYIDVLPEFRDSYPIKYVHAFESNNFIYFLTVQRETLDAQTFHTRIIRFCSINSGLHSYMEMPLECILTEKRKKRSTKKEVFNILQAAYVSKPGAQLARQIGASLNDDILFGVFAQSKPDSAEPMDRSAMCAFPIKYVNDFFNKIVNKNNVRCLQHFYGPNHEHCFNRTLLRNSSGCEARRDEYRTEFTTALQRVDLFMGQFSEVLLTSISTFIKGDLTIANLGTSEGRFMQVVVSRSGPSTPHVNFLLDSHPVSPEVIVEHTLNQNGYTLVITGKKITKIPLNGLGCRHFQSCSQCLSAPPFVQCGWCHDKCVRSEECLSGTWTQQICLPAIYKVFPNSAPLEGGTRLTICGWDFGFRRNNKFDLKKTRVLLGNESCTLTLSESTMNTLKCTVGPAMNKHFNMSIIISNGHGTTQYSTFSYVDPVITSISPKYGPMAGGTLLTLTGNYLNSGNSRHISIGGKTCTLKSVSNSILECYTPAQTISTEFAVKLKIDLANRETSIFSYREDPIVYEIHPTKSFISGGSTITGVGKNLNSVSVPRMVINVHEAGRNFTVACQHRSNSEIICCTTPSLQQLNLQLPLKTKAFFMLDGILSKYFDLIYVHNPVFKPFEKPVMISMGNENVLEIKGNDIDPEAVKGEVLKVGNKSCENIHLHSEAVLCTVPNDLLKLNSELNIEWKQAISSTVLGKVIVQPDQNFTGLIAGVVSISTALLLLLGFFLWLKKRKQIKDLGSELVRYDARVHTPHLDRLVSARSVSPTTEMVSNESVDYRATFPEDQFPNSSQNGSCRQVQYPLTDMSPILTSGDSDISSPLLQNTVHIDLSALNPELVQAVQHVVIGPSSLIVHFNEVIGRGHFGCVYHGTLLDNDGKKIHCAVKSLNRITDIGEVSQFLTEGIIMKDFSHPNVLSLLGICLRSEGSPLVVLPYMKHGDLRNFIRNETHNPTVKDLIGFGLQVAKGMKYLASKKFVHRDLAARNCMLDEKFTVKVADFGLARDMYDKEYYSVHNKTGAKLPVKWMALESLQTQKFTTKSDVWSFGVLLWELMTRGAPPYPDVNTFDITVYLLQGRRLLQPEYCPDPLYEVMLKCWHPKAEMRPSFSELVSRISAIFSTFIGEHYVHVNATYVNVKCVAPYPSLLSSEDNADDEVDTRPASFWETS"}, "source": "paper PMC9264908", "target": "recombinant-human PD-L1 (programmed death ligand 1) (human) (UniProt Q9NZQ7)", "experiment": "co-IP; PD-L1 as bait: PDAC cells treated with PD-L1 for 1 h before lysate collection; 1 mg pre-cleared lysate incubated overnight at 4 °C with 75 µg polyclonal anti-PD-L1 or IgG; blot for MET; only the target purified", "note": "These are yes or no findings as the source states them, for the method shown. Binding seen in cells or lysates may run through a third protein.", "data": [{"substance": "c-MET (MET, mesenchymal-epithelial transition factor) (from UniProt P08581 25-1390) (receptor)", "values": [{"measurement": "binding", "result": "no binding"}]}]}
